From PMC2360244 (British Journal of Cancer, 2007)

Tested on: A2780 ovarian carcinoma cells
Assay: A2780 tumour cell proliferation, MTT colorimetric assay
Format: cell-based, human
Conditions: 4 days, mean±s.d.
Experimental: Control cells were treated with the combined respective vehicle.

IC50: 1160 ± 578 nM
SMILES: O=C(CCCCCCC(=O)Nc1ccccc1)NO [Vorinostat, suberoylanilide hydroxamic acid]
